2 molecules from article PMC7280516 can be followed below.

Sequences of proteins named here, by UniProt entry; tags and fusion partners are left off.
UniProt P35222: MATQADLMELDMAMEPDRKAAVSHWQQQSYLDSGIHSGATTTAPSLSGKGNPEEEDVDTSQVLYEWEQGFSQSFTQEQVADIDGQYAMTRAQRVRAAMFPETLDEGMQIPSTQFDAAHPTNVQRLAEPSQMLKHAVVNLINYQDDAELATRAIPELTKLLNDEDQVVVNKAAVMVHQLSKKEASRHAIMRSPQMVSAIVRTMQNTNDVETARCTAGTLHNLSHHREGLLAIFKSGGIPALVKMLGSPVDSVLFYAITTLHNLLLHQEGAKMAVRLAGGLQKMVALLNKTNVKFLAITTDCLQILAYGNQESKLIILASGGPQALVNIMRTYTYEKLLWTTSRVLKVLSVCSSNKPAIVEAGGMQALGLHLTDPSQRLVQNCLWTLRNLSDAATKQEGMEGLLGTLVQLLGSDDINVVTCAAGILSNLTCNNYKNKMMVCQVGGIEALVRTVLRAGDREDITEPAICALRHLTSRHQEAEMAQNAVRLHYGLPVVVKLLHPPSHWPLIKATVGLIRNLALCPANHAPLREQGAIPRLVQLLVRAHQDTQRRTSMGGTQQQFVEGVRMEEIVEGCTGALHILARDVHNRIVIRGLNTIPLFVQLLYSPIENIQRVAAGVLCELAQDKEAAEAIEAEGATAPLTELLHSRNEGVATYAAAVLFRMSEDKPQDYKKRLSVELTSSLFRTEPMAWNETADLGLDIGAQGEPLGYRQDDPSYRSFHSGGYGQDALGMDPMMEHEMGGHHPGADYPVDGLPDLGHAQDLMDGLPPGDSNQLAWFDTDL

Results are given in words; binding and its absence hold for the method and conditions named. In cells and extracts the contact can be indirect. Some results given as binding are weak or reduced against the parent protein; the word gives no strength.

Test [1] concerns the target T1, FOXM1 (forkhead box transcription M1) (human (endogenous in A549 and HCC827)) (UniProt Q08050).
T1 sequence: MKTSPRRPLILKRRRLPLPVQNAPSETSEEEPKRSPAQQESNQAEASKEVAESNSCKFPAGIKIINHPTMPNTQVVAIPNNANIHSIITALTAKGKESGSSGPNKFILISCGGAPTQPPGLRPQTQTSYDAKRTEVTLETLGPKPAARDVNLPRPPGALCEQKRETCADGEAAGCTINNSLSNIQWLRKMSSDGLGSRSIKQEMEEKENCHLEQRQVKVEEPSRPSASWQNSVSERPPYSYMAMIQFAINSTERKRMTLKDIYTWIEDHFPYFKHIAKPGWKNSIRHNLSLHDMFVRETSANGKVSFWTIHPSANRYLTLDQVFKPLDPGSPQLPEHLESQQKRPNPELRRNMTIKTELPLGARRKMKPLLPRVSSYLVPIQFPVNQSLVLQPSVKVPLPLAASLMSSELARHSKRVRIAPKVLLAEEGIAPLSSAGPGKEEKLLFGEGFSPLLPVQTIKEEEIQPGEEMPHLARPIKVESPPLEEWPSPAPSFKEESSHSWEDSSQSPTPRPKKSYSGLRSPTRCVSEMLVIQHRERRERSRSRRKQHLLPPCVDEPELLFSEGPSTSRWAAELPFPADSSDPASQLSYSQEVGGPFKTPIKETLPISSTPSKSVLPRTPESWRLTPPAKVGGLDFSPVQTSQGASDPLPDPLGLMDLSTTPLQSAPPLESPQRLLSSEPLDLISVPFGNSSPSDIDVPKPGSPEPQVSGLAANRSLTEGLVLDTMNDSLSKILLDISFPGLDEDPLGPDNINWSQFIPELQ
The test can be described thus: co-IP; lysates of A549 and HCC827 cells (RIPA); immunoprecipitation with anti-FOXM1, anti-β-catenin or anti-IgG for 1 h at 37 °C, protein A-agarose overnight; bound proteins tested by western blot.

For test [2], the target named is β-catenin (human (endogenous in A549 and HCC827)) (UniProt P35222). Described as above.

With β-catenin (from UniProt P35222 1-781), the binding entry in test [1] was “binds”.

B1: FOXM1 (forkhead box transcription M1) (protein, UniProt Q08050 1-763)
chain: T1 sequence
In the case of B1, the binding result in test [2] was “binds”.
